Assay results from patent US20160206688A1, “METHODS FOR TREATING BACTEREMIA AND OSTEOMYELITIS USING ORITAVANCIN” (THE MEDICINES COMPANY, priority 2013, published 2016).
At least one compound was matched to its structure with a doubt left.

Experiments:
Experiment in all cases: Broth microdilution MIC, European bacteraemia isolates 2010-2012
S. aureus = assay type: cell-based; set-up: unit not given beside the values; details: Table 2; S. aureus Methicillin-resistant (1,708)
Protocol: (§1) A total of 2,904 clinical strains responsible for documented bacteremia among unique hospitalized patients in 38 hospitals in 11 European Union countries. Israel, Russia, Turkey and Ukraine were included in this study (2010-2012). Isolates were submitted to a central monitoring laboratory (JMI Laboratories, North Liberty. Iowa. USA), following previously established protocols. Bacterial species identification was performed by using an automated system (Vitek®2; bioMèrieux, Hazelwood, Mo., USA) or conventional biochemical algorithms, as required.
(§2) Isolates were tested for susceptibility by broth microdilution methods following the Clinical and Laboratory Standards Institute (CLSI; M07-A9, 2012) document. Susceptibility testing was performed in cation-adjusted Mueller-Hinton broth (CA-MHB) using dry-form panels manufactured by Thermo Fisher Scientific, formerly TREK Diagnostics Systems/Sensititre (Cleveland. Ohio, USA). These panels provide results equivalent to the CLSI-approved broth microdilution method supplemented with 0.002% polysorbate-80.
(§3) Quality assurance was performed by concurrent testing of CLSI-recommended (M100-S23, 2013) strains: E. faecalis ATCC 29212 and S. aureus ATCC 29213. Interpretation of comparator MIC results was in accordance with published CLSI (M100-S23) and European Committee on Antimicrobial Susceptibility Testing (EUCAST, 2013) criteria.

[1] = test system: Coagulase-negative staphylococci; assay type: cell-based, coagulase-negative staphylococci (CoNS); set-up: unit not given beside the values; details: Table 2; Coagulase-negative staphylococci (646)
Protocol: as §1, §2, §3

E. faecalis = assay type: cell-based, Enterococcus faecalis; set-up: unit not given beside the values; details: Table 2; E. faecalis (445), includes four VanA-phenotype strains
Protocol: as §1, §2, §3

E. faecium = assay type: cell-based, Enterococcus faecium; details: Table 2
Protocol: as §1, §2, §3

[2] = E. faecium Vancomycin-susceptible (257)

Structure (SMILES): CCC[C@@H]1C[C@@H](C(=O)N[C@@H]([C@H]2O[C@H](SC)[C@H](O)[C@@H](O)[C@H]2O)[C@H](C)Cl)N(C)C1 [Clindamycin]
- MIC Range (S. aureus): ≦0.25->2
- MIC Range [1]: ≦0.25->2

Structure (SMILES): C[C@H]1COc2c(N3CCN(C)CC3)c(F)cc3c(=O)c(C(=O)O)cn1c23 [Levofloxacin]
- MIC Range (E. faecalis): ≦0.5->4
- MIC Range (S. aureus): ≦0.5->4
- MIC Range (E. faecium; [2]): 1->4
- MIC Range [1]: ≦0.5->4

Structure (SMILES): CN(C)[C@@H]1C(O)=C(C(N)=O)C(=O)[C@@]2(O)C(O)=C3C(=O)c4c(O)cccc4[C@@](C)(O)[C@H]3C[C@@H]12 [Tetracycline]
- MIC Range (E. faecalis): ≦0.25->8
- MIC Range (S. aureus): ≦0.25->8
- MIC Range (E. faecium; E. faecium Vancomycin-resistant (VanA-phenotype) (153)): ≦0.25->8
- MIC Range (E. faecium; [2]): ≦0.25->8
- MIC Range [1]: ≦0.25->8
